Test results: PubChem BioAssay AID1347426 (Functional Genomics Laboratory (NCATS/FGL), 2020)
About 1,400 (4.5%) of roughly 31,000 sequences were called active.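 How the source made its calls: active means median seed-adjusted z-score above 1 or below -1; inactive means the rest.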 The list shows a part of the results.

experiment: Novel Modifiers of Survival Motor Neuron (SMN) Protein: Gene Identification via Genome-wide siRNA Screen; conditions: HEK293T SMN2-luciferase reporter, siRNA knockdown, 72 h; actives lie on both sides;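 further: luminescence tracks full-length SMN protein made from the SMN2 reporter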
Outline: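 Genome-wide siRNA screen (10418 genes, 3 siRNAs each, 1 pmol per well) by reverse transfection in HEK293T cells stably carrying an SMN2-luciferase reporter; luminescence after 72 hours, normalized to negative-control siRNA, log10-transformed, MAD-scored.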

Sequence	median seed-adjusted z-score
GGAUGAACCCAAUCCCAAUTT against UBE2A	inactive: 0.306
CAGCCGCUGAAAUCCUUAATT against GRIK1	inactive: -0.31
CUACUGGAUUUGCUACAUUTT against SLCO4C1	inactive: -0.116
GGACAUCGCGUAUCCCAAATT against SLC5A11	inactive: -0.219
GGCUUACCAUACUAUGAAATT against RHOBTB1	inactive: -0.605
CUCUCAAACAGAUGUUGUATT against CTGLF1	inactive: 0.0231
GGAAAAUCUUAUACAAUGATT against KIF1B	inactive: 0.376
GGAUGAAACCAGUGCUGAATT against CLIC1	inactive: 0.288
CAUUUGCAAUGUAAAGAAUTT against ZNF208	inactive: 0.265
ACAUCACCCGCACCAUUUATT against P2RY4	inactive: -0.389
AAUCAUUUGUCACAAGAGATT against ZFAND6	inactive: -0.181
GCCUGUAACUCAUCGGUGATT against KCTD16	inactive: 0.00219
CAGCCUCAGUGGGAAUACATT against SCN5A	inactive: -0.167
UGGGUGAGAUUGUCCGUAATT against HK2	inactive: -0.0135
AGACUUAUGUGGAACUGUATT against HOXA4	inactive: 0.194
ACUUAUGAAGUUGACCUUATT against SDHB	inactive: 0.0872
ACUUUGUAAUGUAAAAGGATT against IMP3	inactive: 0.0239
CAGACUUAUUACUAGAUGATT against PRDX5	inactive: -0.0386
GAAUCGCGAGCUGAAGGAATT against ATF5	inactive: 0.233
CAACGACUGAUGCUCCGAATT against TLR3	inactive: 0.0615
GGAACGAAGGUGUUGCACATT against MECR	inactive: 0.0339
GGAAUUUACCGAAACCCGUTT against AMZ2	inactive: 0.26
GUACUCCCAGGAUUCCAUATT against CNOT8	inactive: 0.375
GUGCUCAAAUCUAAUCCAATT against DNAJC3	inactive: 0.502
GUAGCACAGAGGAUUAAAATT against TTC33	inactive: 0.104
GGAUAUGGAGUGAUUCCUATT against PAQR3	inactive: -0.0384
GCUUUCAAAUUCUAUCGAATT against SFRS14	inactive: -0.312

Sequence	median seed-adjusted z-score
CUUUAAGAGUUGUUACUAATT against YEATS4	inactive: 0.905
AAAUGAUCAUGCCGAAAAATT against RANBP1	inactive: 0.545
GUAUAUUCACUGACCGUUUTT against SLC16A2	inactive: -0.302
GCUGGAAUCCUAGCUCGUATT against ATIC	inactive: -0.0267
GGUUGGUGUUCGAUGAGUATT against ANXA6	active: -1.01
GGAGAUUAGCAAGACCAUUTT against HOXC10	inactive: 0.000966
CCUACAACGAGAUGCCUUATT against SCPEP1	inactive: -0.99
GAACCUAACCAACUAUAAATT against EPB42	inactive: -0.294
GCCUAAUGGUUCAUUGCUATT against IRAK4	inactive: -0.288
GGAGAAUGGUUCGACUGUUTT against CKAP5	active: -1.87
AGUUUGUCGUUCUAAAGAATT against KRT85	inactive: -0.126
GGAAAACGGAAGAGGAAUATT against MAGI2	inactive: -0.23
CGAGAAGUGAUCUCCAAAATT against RAPGEFL1	inactive: 0.21
CGCAAUCACUCACAUCUCATT against ZNF502	inactive: 0.348
CAGAUGGAUUAUUAGCUGATT against OAZ2	inactive: 0.66
CAACCUUGCUAACCUUAUATT against SPAST	inactive: 0.0703
CCAUGUAGAGGACCUAGAATT against MCL1	inactive: 0.225
UGUGCUUCGUGAUACCGAUTT against MSL3	inactive: 0.423
GGUCCAUCCAAAUUGUGGATT against CYP21A2	inactive: -0.26
GAAGCUUCGCUAUUAUGAATT against MPP3	inactive: 0
CGAUGGACAGAAUAACUGUTT against LDLRAD3	inactive: -0.133
GGCGCAAGGAUGAAACCUATT against GALNT6	inactive: -0.287
UCAUCAUUGUGAUAAACCATT against TMEM86B	inactive: -0.465
CAAGUGGAGCGGACACGAATT against ACOT8	inactive: 0.0643
AGAUGAGGGUCUACAACAATT against GALNT9	inactive: 0.787
GGAUGAACUGAGACGCAAATT against SEMA4C	inactive: -0.334

A different layout for some results above:
Sequence | median seed-adjusted z-score
GGAGAUUAGCAAGACCAUUTT against HOXC10 | inactive: 0.000966
CAGAUGGAUUAUUAGCUGATT against OAZ2 | inactive: 0.66
CAAGUGGAGCGGACACGAATT against ACOT8 | inactive: 0.0643
GGAUGAACUGAGACGCAAATT against SEMA4C | inactive: -0.334
